Laboratory results from PubChem BioAssay AID188 (DTP/NCI, 2004).
Shown are survivors of the treated group in tumour-free mice. Counts of survivors are from the toxicity check (mostly the fifth day) where no day follows; animals may have died later. Schedule codes are those of the source, read here as Q, the interval in days (D) or hours (H), X, the number of doses. Some doses were run more than once; the results are listed from low to high.

Tested on: CD2F1 mice, nontumored, toxicity/survival
Assay: NCI In Vivo Anticancer Drug Screen. Data for tumor model Nontumored Animals (Toxicity Test) in CD2F1 (CDF1) mice
Settings: vehicle: saline
[1] = dose: 0.5 mg/kg/injection, schedule: Q03HX024 (ip)
[2] = dose: 1.0 mg/kg/injection, schedule: Q03HX016 (ip)
[3] = dose: 1.0 mg/kg/injection, schedule: Q03HX024 (ip)
[4] = dose: 2.0 mg/kg/injection, schedule: Q01DX009 (ip)
[5] = dose: 2.0 mg/kg/injection, schedule: Q03HX008 (ip)
[6] = dose: 2.0 mg/kg/injection, schedule: Q03HX016 (ip)
[7] = dose: 2.0 mg/kg/injection, schedule: Q03HX024 (ip)
[8] = dose: 4.0 mg/kg/injection, schedule: Q01DX009 (ip)
[9] = dose: 4.0 mg/kg/injection, schedule: Q03HX008 (ip)
[10] = dose: 4.0 mg/kg/injection, schedule: Q03HX016 (ip)
[11] = dose: 4.0 mg/kg/injection, schedule: Q03HX024 (ip)
[12] = dose: 8.0 mg/kg/injection, schedule: Q01DX009 (ip)
[13] = dose: 8.0 mg/kg/injection, schedule: Q03HX008 (ip)
[14] = dose: 8.0 mg/kg/injection, schedule: Q04DX003 (ip)
[15] = dose: 8.0 mg/kg/injection, schedule: Q08DX002 (ip)
[16] = dose: 16.0 mg/kg/injection, schedule: Q01DX001 (ip)
[17] = dose: 16.0 mg/kg/injection, schedule: Q04DX003 (ip)
[18] = dose: 16.0 mg/kg/injection, schedule: Q08DX002 (ip)
[19] = dose: 32.0 mg/kg/injection, schedule: Q01DX001 (ip)
[20] = dose: 32.0 mg/kg/injection, schedule: Q04DX003 (ip)
[21] = dose: 32.0 mg/kg/injection, schedule: Q08DX002 (ip)
[22] = dose: 64.0 mg/kg/injection, schedule: Q01DX001 (ip)

## COc1cc([C@@H]2c3cc4c(cc3[C@@H](OC3OC5CO[C@@H](c6cccs6)OC5C(O)C3O)[C@H]3COC(=O)[C@H]23)OCO4)cc(OC)c1O (some centres undefined)
dose: 0.25 mg/kg/injection, schedule: Q03HX016 (ip)
  survivor count: 8 of 8
dose: 0.25 mg/kg/injection, schedule: Q03HX024 (ip)
  survivor count: 8 of 8
dose: 0.5 mg/kg/injection, schedule: Q01DX005 (ip)
  survivor count: 8 of 8
dose: 0.5 mg/kg/injection, schedule: Q01DX009 (ip)
  survivor count: 8 of 8
dose: 0.5 mg/kg/injection, schedule: Q01DX009 (sc)
  survivor count: 8 of 8
dose: 0.5 mg/kg/injection, schedule: Q03HX008 (ip)
  survivor count: 8 of 8
dose: 0.5 mg/kg/injection, schedule: Q03HX016 (ip)
  survivor count: 8 of 8
[1]
  survivor count: 8 of 8
dose: 1.0 mg/kg/injection, schedule: Q01DX005 (ip)
  survivor count: 8 of 8
dose: 1.0 mg/kg/injection, schedule: Q01DX009 (ip)
  survivor count: 8 of 8
dose: 1.0 mg/kg/injection, schedule: Q01DX009 (sc)
  survivor count: 8 of 8
dose: 1.0 mg/kg/injection, schedule: Q03HX008 (ip)
  survivor count: 8 of 8
[2]
  survivor count: 8 of 8
[3]
  survivor count: 8 of 8
dose: 2.0 mg/kg/injection, schedule: Q01DX001 (sc)
  survivor count: 8 of 8
dose: 2.0 mg/kg/injection, schedule: Q01DX005 (ip)
  survivor count: 8 of 8
[4]
  survivor count: 8 of 8
dose: 2.0 mg/kg/injection, schedule: Q01DX009 (oral)
  survivor count: 8 of 8
dose: 2.0 mg/kg/injection, schedule: Q01DX009 (sc)
  survivor count: 8 of 8
[5]
  survivor count: 8 of 8
[6]
  survivor count: 8 of 8
[7]
  survivor count: 8 of 8
dose: 2.0 mg/kg/injection, schedule: Q04DX003 (ip)
  survivor count: 8 of 8
dose: 2.0 mg/kg/injection, schedule: Q08DX002 (ip)
  survivor count: 8 of 8
dose: 4.0 mg/kg/injection, schedule: Q01DX001 (ip)
  survivor count: 8 of 8
dose: 4.0 mg/kg/injection, schedule: Q01DX001 (sc)
  survivor count: 8 of 8
dose: 4.0 mg/kg/injection, schedule: Q01DX005 (ip)
  survivor count: 7 of 8
[8]
  survivor count: 8 of 8
dose: 4.0 mg/kg/injection, schedule: Q01DX009 (oral)
  survivor count: 8 of 8
dose: 4.0 mg/kg/injection, schedule: Q01DX009 (sc)
  survivor count: 8 of 8
[9]
  survivor count: 3 of 8
[10]
  survivor count: 2 of 8
[11]
  survivor count: 5 of 8
dose: 4.0 mg/kg/injection, schedule: Q04DX003 (ip)
  survivor count: 8 of 8
dose: 4.0 mg/kg/injection, schedule: Q08DX002 (ip)
  survivor count: 8 of 8
dose: 8.0 mg/kg/injection, schedule: Q01DX001 (ip)
  survivor count: 8 of 8
dose: 8.0 mg/kg/injection, schedule: Q01DX001 (oral)
  survivor count: 8 of 8
dose: 8.0 mg/kg/injection, schedule: Q01DX001 (sc)
  survivor count: 8 of 8
dose: 8.0 mg/kg/injection, schedule: Q01DX005 (ip)
  survivor count: 8 of 8
[12]
  survivor count: 8 of 8
dose: 8.0 mg/kg/injection, schedule: Q01DX009 (oral)
  survivor count: 7 of 8
dose: 8.0 mg/kg/injection, schedule: Q01DX009 (sc)
  survivor count: 6 of 8
[13]
  survivor count: 2 of 8
[14]
  survivor count: 8 of 8
[15]
  survivor count: 8 of 8
[16]
  survivor count: 8 of 8
dose: 16.0 mg/kg/injection, schedule: Q01DX001 (oral)
  survivor count: 8 of 8
dose: 16.0 mg/kg/injection, schedule: Q01DX001 (sc)
  survivor count: 8 of 8
dose: 16.0 mg/kg/injection, schedule: Q01DX009 (oral)
  survivor count: 8 of 8
[17]
  survivor count: 7 of 8
[18]
  survivor count: 7 of 8
[19]
  survivor count: 6 of 8
dose: 32.0 mg/kg/injection, schedule: Q01DX001 (oral)
  survivor count: 7 of 8
dose: 32.0 mg/kg/injection, schedule: Q01DX001 (sc)
  survivor count: 8 of 8
dose: 32.0 mg/kg/injection, schedule: Q01DX009 (oral)
  survivor count: 6 of 8
[20]
  survivor count: 5 of 8
[21]
  survivor count: 7 of 8
[22]
  survivor count: 0 of 8
dose: 64.0 mg/kg/injection, schedule: Q01DX001 (oral)
  survivor count: 0 of 8

## Cc1c(N)nc([C@H](CC(N)=O)NC[C@H](N)C(N)=O)nc1C(=O)N[C@H](C(=O)N[C@H](C)[C@@H](O)[C@H](C)C(=O)N[C@H](C(=O)NCCc1nc(-c2nc(C(=O)NCCC[S+](C)C)cs2)cs1)[C@@H](C)O)C(OC1OC(CO)C(O)C(O)C1OC1OC(CO)C(O)C(OC(N)=O)C1O)c1cnc[nH]1 (some centres undefined)
[1]
  survivor count: 8 of 8
[2]
  survivor count: 5 of 8
[3]
  survivor count: 8 of 8
[4]
  survivor count: 8 of 8
[5]
  survivor count: 8 of 8
[6]
  survivor count: 8 of 8
[7]
  survivor count: 7 of 8
[8]
  survivor count: 4 of 4 and 8 of 8
[9]
  survivor count: 8 of 8
[10]
  survivor count: 8 of 8
[11]
  survivor count: 8 of 8
[12]
  survivor count: 4 of 4 and 8 of 8
[13]
  survivor count: 8 of 8
dose: 8.0 mg/kg/injection, schedule: Q03HX016 (ip)
  survivor count: 7 of 8
dose: 8.0 mg/kg/injection, schedule: Q03HX024 (ip)
  survivor count: 6 of 8
[14]
  survivor count: 8 of 8
[15]
  survivor count: 8 of 8
[16]
  survivor count: 8 of 8
dose: 16.0 mg/kg/injection, schedule: Q01DX009 (ip)
  survivor count: 4 of 4 and 8 of 8
dose: 16.0 mg/kg/injection, schedule: Q03HX008 (ip)
  survivor count: 8 of 8
dose: 16.0 mg/kg/injection, schedule: Q03HX016 (ip)
  survivor count: 7 of 8
[17]
  survivor count: 8 of 8
[18]
  survivor count: 8 of 8
[19]
  survivor count: 8 of 8
dose: 32.0 mg/kg/injection, schedule: Q01DX009 (ip)
  survivor count: 4 of 4 and 8 of 8
dose: 32.0 mg/kg/injection, schedule: Q03HX008 (ip)
  survivor count: 7 of 8
[20]
  survivor count: 8 of 8
[21]
  survivor count: 8 of 8
[22]
  survivor count: 8 of 8
dose: 64.0 mg/kg/injection, schedule: Q04DX003 (ip)
  survivor count: 8 of 8
dose: 64.0 mg/kg/injection, schedule: Q08DX002 (ip)
  survivor count: 8 of 8
dose: 128.0 mg/kg/injection, schedule: Q01DX001 (ip)
  survivor count: 7 of 8
dose: 128.0 mg/kg/injection, schedule: Q04DX003 (ip)
  survivor count: 8 of 8
dose: 128.0 mg/kg/injection, schedule: Q08DX002 (ip)
  survivor count: 8 of 8
dose: 256.0 mg/kg/injection, schedule: Q01DX001 (ip)
  survivor count: 8 of 8
